Measurements from “University of Dundee, Small-Polar-MMV Screening Library” (2021), ChEMBL document CHEMBL3988442.

A: 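Whole-parasite assay of Trypanosoma brucei over 72 hours; the read-out is not stated. Concentration: 30 µM. Higher reads as stronger inhibition (inferred: compounds with an IC50 in retests scored well above the rest). Values scatter widely below zero; nearly all retest evidence comes from the higher of the two concentrations used. Size under these conditions: about 64,000 compounds, about 940 of them at 50% or above in at least one test.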
B: 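Assay of Toxoplasma gondii numbers, read through their beta-galactosidase reporter with a colour substrate. Concentration: 10 µM. The record gives no direction; the compounds picked for IC50 retests had high values, so higher reads as fewer parasites. Size under these conditions: about 67,000 compounds, about 260 of them at 50% or above in at least one test.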

The filed quantity is “Percent Effect” (%). The controls that fix the scale are not given in the record; negative values are as filed. This is an unselected part of the compounds tested. A dash means the value is not listed here; it may have been measured.

Compound,A,B
CC(C)C(=O)N1CCCC12CCCN(C(=O)c1ccno1)C2 (stereo not shown),-16.65%,8.035%
Cc1ccc(S(=O)(=O)NCC(C)C#N)cc1Br (stereo not shown),-24.23%,0.7638%
COCCOC[C@]1(CNC(=O)c2ccc(OC)cc2)C[C@@H](O)[C@@H](O)C1,-17.91%,1.313%
Cn1cc(Nc2cccc(C(=O)N(CC(N)=O)C3CCCC3)c2)cn1,-6.897%,10.2%
Brc1csc(CNCc2nnc3n2CCC3)c1,-30.74%,7.355%
[H][C@@]12CS(=O)(=O)C[C@]1([H])N(Cc1ncc[nH]1)CCN2Cc1cccnc1,-11.96%,3.03%
CNC(=O)Cn1cc(Nc2cccc(F)c2C#N)cn1,-23.4%,0.6478%
COc1cccc(C(=O)N2C[C@@H](C(=O)O)[C@H](c3ccccc3C)C2)c1,-56.41%,-33.68%
Cc1cc(=O)[nH]c(-n2nc(C)c(CCC(=O)NCc3ccco3)c2C)n1,-5.182%,11.84%
COC(C)C(=O)N(CC(N)=O)Cc1cccc(Oc2ccccc2)c1 (stereo not shown),-16.98%,-2.854%
Cc1cc(F)cc(S(=O)(=O)NC(=O)CCc2cncc(F)c2)c1,6.426%,5.795%
CNS(=O)(=O)CC(=O)N(Cc1c(F)cccc1Cl)C1CC1,-6.433%,-3.35%
[H][C@]12CN(CC=C(C)C)C[C@@]1(C(=O)O)CN(C(=O)c1cnccc1C)C2,-41.08%,7.48%
Cn1nc(COc2cncnc2)c2c1CCN(Cc1ccccn1)C2.O=C(O)C(F)(F)F,-16.56%,3.052%
Cc1nc(-c2ccc(NCCc3ccc(O)cc3)nc2)[nH]c(=O)c1C,14.82%,31.24%
COCCN(C/C=C/c1ccccc1)Cc1ncc[nH]1,5.668%,5.877%
Cc1cc(N2CCC(O)(CN(C)C(=O)CCCN)C2)c2cnccc2n1 (stereo not shown),6.34%,-7.57%
Cc1ncsc1C(=O)NCCNc1ncccc1C#N,-14.62%,-0.09924%
CS(=O)(=O)c1nccn1CCOc1ccccc1F,-114.4%,-0.5963%
COCc1ncn2c1CN(C(=O)C1CC=CC1)CC2,15.32%,-0.6911%
CCS(=O)(=O)NCCCNC(=O)N(C)C(C)c1ccccn1 (stereo not shown),3.429%,-2.141%
CCc1ncncc1C(=O)NCCNc1ncnc2sccc12,-65.32%,-2.516%
Cc1nc(CN2CCCN(C(=O)c3cccnc3O)CC2)cs1,0.9766%,-26.45%
CC(C)(C)n1ncc2c1NC(=O)CC2c1cccc(F)c1 (stereo not shown),-1.045%,2.542%
COCC(O)CN1CCC(=O)N(Cc2ccccc2)Cc2ccccc21 (stereo not shown),-37.16%,-17.23%
CN(C)c1cc(CNC(=O)c2ccccc2S(C)(=O)=O)ccn1,-11.3%,-13.8%
O=C(O)C(F)(F)F.[H][C@@]12CCCO[C@]1([H])[C@H](N(C)Cc1ccco1)CN(C(=O)c1cnccn1)C2,-17.24%,-9.615%
COCCCNC(=O)N1CCC(CNC(=O)c2cnn(C)c2)CC1,-3.873%,-30.73%
CCC(NC1CCN(S(C)(=O)=O)CC1)c1cccs1 (stereo not shown),8.024%,-9.067%
O=C(O)C(F)(F)F.O=C(O)C(F)(F)F.[H][C@@]12COC[C@]1(COc1ccccn1)CN(c1ncccn1)C2,16.38%,14.53%
O=C(NCCc1ccc(F)cc1)C1CN(C(=O)Cn2cncn2)C1,-,7.817%
CCc1nnc(C(C)N2CCCN(C(=O)OCC(C)C)CC2)o1 (stereo not shown),-7.841%,6.916%
Fc1cnc(N2CCc3nnc(COc4ccccn4)n3CC2)nc1.O=C(O)C(F)(F)F,-,-13.52%
Cn1cc(CN2CCCC3(CCN(c4nncs4)C3)C2)cn1.O=C(O)C(F)(F)F (stereo not shown),-20.97%,2.18%
CCc1n[nH]c(C2CN(CCCS(C)(=O)=O)CCO2)n1 (stereo not shown),-27.54%,-3.012%
O=C(Nc1ccc(-c2csnn2)cc1)N1CCC(N2CCCC2)C1 (stereo not shown),-8.754%,-5.757%
CC(=O)c1ccc(NC(=O)NCc2cccc(N(C)C)n2)cc1C,-17.1%,-4.104%
CCN(C)C(C(=O)Nc1ccc2c(c1)CCC(=O)N2)c1ccccc1 (stereo not shown),-16.5%,1.561%
CCn1c(C)nnc1CN(C)C1CCN(CCn2cccn2)C1 (stereo not shown),-10.87%,0.4135%
O=C(NCCC1COc2ccccc2O1)c1ccc(N2CC(O)C2)nc1 (stereo not shown),57.01%,-49%
c1ccc(-n2nc(CNC3CCc4ncnn4C3)c3c2CCC3)cc1 (stereo not shown),-10.74%,0.8607%
CCc1ccc(C2COCCN2C(=O)Nc2ccc(C#N)cc2)o1 (stereo not shown),-82.62%,2.055%
CCOc1ccccc1C(C(=O)O)N(C)Cc1nc(C)c[nH]1 (stereo not shown),3.034%,-13.5%
CCOC(=O)N1CCNC(c2cccs2)C1 (stereo not shown),-,10.49%
Cc1ccc2c(c1)c(CNC(=O)C1CC(=O)N(C3CCCC3)C1)nn2C (stereo not shown),-20.65%,-3.693%
CC(NS(C)(=O)=O)C(=O)N(C)Cc1csc(-c2ccccc2)n1 (stereo not shown),-14.99%,-6.441%
Cc1ncsc1CNC(=O)NCC1(c2ccc3c(c2)OCO3)CC1,-39.88%,24.67%
CCOCC1COCCC12CCN(C(=O)CC1=CCCCC1)CC2 (stereo not shown),-74.87%,-2.751%
Cc1cc(CNCC2Cn3nnc(C)c3CO2)oc1C.O=C(O)C(F)(F)F (stereo not shown),-32.42%,-7.118%
CCN1CCC(CC(=O)NCCc2nc(C)cc(C)n2)CC1,-54.14%,36.67%
CN(C)c1cc(CNC(=O)C2COc3ccccc3O2)ccn1 (stereo not shown),-20.09%,-0.918%
CCNC(=O)N1CCC(OC)c2ccccc2N(CC(=O)NC)C(=O)C1 (stereo not shown),10.87%,-28.81%
OCCC1CCN(c2ccnc3ccsc23)C1 (stereo not shown),35.99%,-17.99%
c1ccc(CCCN2CC(n3cccn3)C2)cc1,-13.51%,1.077%